According to PubChem BioAssay AID1671190 (National Center for Advancing Translational Sciences (NCATS), 2021):
The campaign covered roughly 580,000 compounds. About 6,100 (1.1%) were called active. Inconclusive means that the source gave no clear call. Such entries were picked first, then a sample of the others. The call rests on the fitted dose curve; in most records, active means well fitted inhibition curve with a large enough effect; inconclusive means small, poorly fitted or top-dose-only effect, or another doubt; inactive means no such curve, though single readings can be large or run the other way. Potencies beside an inconclusive call are fits to weak or partial responses and may not hold up.
On the % scale 0 is the no-effect control and ±100 the full control effect; potency means the concentration at half of the fitted maximal effect.

By UniProt entry, the sequences of proteins in these tests, tags left out.
UniProt P18054, whole entry, looked up: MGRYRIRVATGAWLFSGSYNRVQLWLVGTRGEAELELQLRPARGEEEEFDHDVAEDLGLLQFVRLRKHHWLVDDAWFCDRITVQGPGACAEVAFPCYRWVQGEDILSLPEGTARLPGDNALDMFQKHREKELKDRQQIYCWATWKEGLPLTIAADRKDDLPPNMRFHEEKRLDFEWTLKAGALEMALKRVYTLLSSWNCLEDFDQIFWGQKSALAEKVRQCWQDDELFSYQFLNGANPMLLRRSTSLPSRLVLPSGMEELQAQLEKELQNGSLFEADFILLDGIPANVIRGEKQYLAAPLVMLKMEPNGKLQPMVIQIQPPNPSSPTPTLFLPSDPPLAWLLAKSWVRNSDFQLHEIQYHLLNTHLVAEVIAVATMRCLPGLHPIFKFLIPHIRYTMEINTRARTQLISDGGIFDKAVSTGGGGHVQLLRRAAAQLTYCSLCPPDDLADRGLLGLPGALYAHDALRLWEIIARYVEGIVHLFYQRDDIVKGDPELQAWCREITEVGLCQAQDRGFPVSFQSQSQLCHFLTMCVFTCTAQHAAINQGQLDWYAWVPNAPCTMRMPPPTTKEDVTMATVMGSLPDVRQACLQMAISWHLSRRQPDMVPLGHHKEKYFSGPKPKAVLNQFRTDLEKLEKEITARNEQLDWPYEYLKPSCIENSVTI

What follows are compounds tested against Polyunsaturated fatty acid lipoxygenase ALOX12 (Homo sapiens) (UniProt P18054) (assay: Primary qHTS assay for inhibitors of human arachidonate 12S-lipoxygenase (ALOX12): Round 2). Details: purified 12hLO, xylenol orange hydroperoxide absorbance; activity change, negative = inhibition: at 108 µM (top of the series) unless noted.
How it was run: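 Purified human 12hLO at 150 nM in 25 mM Hepes, 0.01% Triton X-100, pH 7.0, preincubated 15 min at room temperature with compound. Reaction started with 40 uM arachidonic acid, 30 min at room temperature. Hydroperoxide measured by Fe-xylenol orange, 573/405 nm absorbance ratio.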
In the case of `CN(C)C(=O)CNC(=O)c1nn(C)c(=O)c2ccccc12`, the Potency is reported as inconclusive: 56.2 µM [inhibitor, single point].
For `S=c1sc2c(s1)SC1CC=CC1S2` (stereo unspecified), the Potency was inconclusive: 28.2 µM [inhibitor, partial curve, poor fit].
In the case of `CC(C)C[C@H]1CN([C@@H](Cc2ccccc2)CN2CCC[C@@H]2CN2C(=O)C(=O)NC[C@@H]2Cc2ccc(O)cc2)C(=O)C(=O)N1CCc1ccccc1`, the Potency is reported as inconclusive: 112 µM [inhibitor, single point].
`CC(C)(C)OC(=O)NCCc1onc(-c2ccccc2F)c1C(=O)O` was tested, and the Potency was inconclusive: 141 µM [inhibitor, single point].
With `CCC1(O)C(=O)OCc2c1cc1n(c2=O)Cc2cc3cc(O)ccc3nc2-1` (stereo unspecified) the “activity change, negative = inhibition” value was inactive: 13.5%.
With `Cc1ccc(C(c2cccnc2)n2cc(-c3cncnc3)nn2)cc1C` (stereo unspecified) the “activity change, negative = inhibition” value was inactive: 37.8%.
`COCCCN1C(=O)C(=O)/C(=C(/O)c2ccc(S(=O)(=O)N3CCOCC3)cc2)C1c1ccc(OC)cc1` (stereo unspecified) was tested, and the Potency was inconclusive: 35.5 µM [inhibitor, partial curve, poor fit].
For `CC1(C(=O)CSc2nc3ccccc3s2)CCC(=O)O1` (stereo unspecified), the Potency was inconclusive: 31.6 µM [inhibitor, partial curve, poor fit].
With `COCCn1nnnc1C(c1ccc(OC)c(OC)c1)N1CCc2ccccc21` (stereo unspecified) the “activity change, negative = inhibition” value was inactive: -12.1%.
In the case of `CCCCN(CC)c1ccc(NS(=O)(=O)c2ccc(C(C)=O)cc2)cc1C(=O)O`, the “activity change, negative = inhibition” value is reported as inactive: -79.8%.
In the case of `NCCCC(=O)N1CCCC(N2CCN(c3cccc(Cl)c3)CC2)C1` (stereo unspecified), the Potency is reported as inconclusive: 35.5 µM [inhibitor, partial curve, poor fit].
For `CCO/C(C)=N/Oc1cccc(N(C)C)c1`, the Potency was inconclusive: 56.2 µM [inhibitor, partial curve, poor fit].
With `CN(C(=S)NC(=O)C1CCCC1)c1ccccc1` the Potency was active: 20 µM.
In the case of `CCCCCCCCCCn1c2c(c(=N)c3c1CCC3)CCC2`, the Potency is reported as inconclusive: 126 µM [inhibitor, partial curve, poor fit].
For `Cc1ccc(C(=O)N2CCC([C@@H]3CNC[C@H]3CO)CC2)cc1C`, the “activity change, negative = inhibition” value was inactive: 4.75%.
`CC(=O)Nc1ccc(CN[C@@H]2CO[C@H](CNC(=O)NC(C)C)[C@H]2O)cc1` was tested, and the Potency was inconclusive: 63.1 µM [inhibitor, partial curve, poor fit].
For `N#CC1(C#N)CC2(O)NC(=O)C1(C#N)C(c1ccccc1)C2Br` (stereo unspecified), the Potency was inconclusive: 39.8 µM [inhibitor, partial curve, poor fit].
`CCN(CC)C(=O)C1=C(C)N(CCC2=CCCCC2)C(=O)C(CC(=O)NC(c2ccccc2)c2ccccc2)C1` (stereo unspecified) was tested, and the Potency was inconclusive: 100 µM [inhibitor, single point].
For `CCOc1nc(NC(=O)NS(=O)(=O)Oc2cccc(F)c2)nc(-c2ccccc2)n1`, the Potency was inconclusive: 50.1 µM [inhibitor, partial curve, poor fit].
With `CSc1nnc(N2C(=O)C(O)=C(C(=O)c3ccco3)C2c2ccccc2F)s1` (stereo unspecified) the Potency was inconclusive: 0.447 µM [inhibitor, full curve, poor fit].
With `Cc1ccc(Cl)cc1NC(=O)C[n+]1ccc(Cc2ccc([N+](=O)[O-])cc2)cc1` the Potency was inconclusive: 44.7 µM [inhibitor, partial curve, poor fit].
In the case of `CCCN1CCN(C(=O)c2ccc(-c3ccc([N+](=O)[O-])cc3)o2)CC1`, the Potency is reported as inconclusive: 50.1 µM [inhibitor, partial curve].
With `Cc1ccnc(NC(=O)c2ccc(S(=O)(=O)NCc3ccco3)cc2)c1` the Potency was inconclusive: 56.2 µM [inhibitor, partial curve, poor fit].
`Cc1cc(CN(C)c2ccc(-c3nc(COc4ccccc4)no3)cn2)on1` was tested, and the “activity change, negative = inhibition” value was inactive: 100%.
`O=C(O)C1CCN1C1CCCCC1` (stereo unspecified) was tested, and the Potency was inconclusive: 4.47 µM [inhibitor, full curve, poor fit].
For `COc1cc(-c2cc(C(=O)Nc3c(Cl)cc(Cl)cc3Cl)c3ccccc3n2)cc(OC)c1OC`, the “activity change, negative = inhibition” value was inactive: -16%.
In the case of `O=C(O)c1[nH]c2ccccc2c1C(c1cc(Br)ccc1O)c1c(C(=O)O)[nH]c2ccccc12`, the Potency is reported as inconclusive: 20 µM [inhibitor, partial curve, poor fit].
With `CCc1ccc(CNC(=O)c2cc3cn(C4CCCC4)cc3s2)cc1` the Potency was active: 4.47 µM.
`COc1ccc(/C=C/C(=O)c2ccc(C#N)cc2)cc1Br` was tested, and the Potency was inconclusive: 39.8 µM [inhibitor, partial curve, poor fit].
`S=C(NCCN1CCOCC1)N/N=C/c1c2ccccc2cc2ccccc12` was tested, and the Potency was inconclusive: 31.6 µM [inhibitor, partial curve, poor fit].
In the case of `O=C(Nc1cc2nn(-c3ccccc3)nc2cc1Cl)c1ccco1`, the “activity change, negative = inhibition” value is reported as inactive: 0%.
In the case of `COc1cccc(-c2cccc(-c3nc(C(=O)NCc4ccc5c(c4)OCO5)cc4c3[C@H](CCO)N(S(=O)C(C)(C)C)C4)c2)c1` (stereo partly specified), the Potency is reported as active: 28.2 µM.
In the case of `COC(=O)/C=C\C(=O)O`, the Potency is reported as inconclusive: 70.8 µM [inhibitor, partial curve, poor fit].
`Cn1nc(C(=O)NCC(c2ccco2)N2CCCC2)c2ccccc2c1=O` (stereo unspecified) was tested, and the “activity change, negative = inhibition” value was inactive: -14.5%.
In the case of `CC(=O)c1cccc(Nc2c3c(nc4ccccc24)CCC3)c1`, the Potency is reported as inconclusive: 28.2 µM [inhibitor, single point].
`COc1ccc(N(C)C(=O)c2cc(C)nc3ccccc23)cc1OC` was tested, and the Potency was inconclusive: 112 µM [inhibitor, partial curve, poor fit].
In the case of `Cc1ccc(CN2CC(C(=O)Nc3nnc(SCc4c(Cl)cccc4Cl)s3)CC2=O)cc1` (stereo unspecified), the Potency is reported as inconclusive: 28.2 µM [inhibitor, partial curve].
In the case of `CCC(NC(=O)CC[C@H]1O[C@@H](n2cc(C)c(=O)[nH]c2=O)C[C@@H]1O)c1ccccc1` (stereo partly specified), the Potency is reported as inconclusive: 89.1 µM [inhibitor, single point].
For `CCOc1ccc(S(=O)(=O)N2CCCC(C(=O)Nc3cc(C)cc(C)c3)C2)cc1` (stereo unspecified), the “activity change, negative = inhibition” value was inactive: -1.82%.
For `O=C(Nc1cc(S(=O)(=O)Nc2ccc(Cl)cc2)ccc1O)c1ccc(S(=O)(=O)N2CCCCCC2)cc1`, the “activity change, negative = inhibition” value was inactive: 18%.
`Fc1ccc(-c2nc3c4ccccc4ccn3c2Cc2ccccc2)cc1` was tested, and the Potency was inconclusive: 141 µM [inhibitor, single point].
